Construct, isoform or probe ends are uncertain for at least one entry. Results from cells or extracts need not show a direct contact.

The target of the data set is p53 wild type (Homo sapiens) (UniProt P04637). Kind of data set: EMSA. Conditions: protein in a lysate after overexpression; label: 5' DIG on SEQ:3 strand; variant of GADD45 promoter element duplex (33P).

Turning to “GTACAGAACATGTCTAAGCATGCTGGGGAC (double strand) [DIGGADD45A/GADD45B duplex]”, the binding result is listed as “binds”.
